This note sets out measurements from article PMC7819943, “Rice protein-binding microarrays: a tool to detect cis-acting elements near promoter regions in rice”.

The list shows a part of the results.

For the assay, the target named is T1, OsSMF1 (Oryza sativa, UniProt Q6ZLB0 1-436).
T1 sequence: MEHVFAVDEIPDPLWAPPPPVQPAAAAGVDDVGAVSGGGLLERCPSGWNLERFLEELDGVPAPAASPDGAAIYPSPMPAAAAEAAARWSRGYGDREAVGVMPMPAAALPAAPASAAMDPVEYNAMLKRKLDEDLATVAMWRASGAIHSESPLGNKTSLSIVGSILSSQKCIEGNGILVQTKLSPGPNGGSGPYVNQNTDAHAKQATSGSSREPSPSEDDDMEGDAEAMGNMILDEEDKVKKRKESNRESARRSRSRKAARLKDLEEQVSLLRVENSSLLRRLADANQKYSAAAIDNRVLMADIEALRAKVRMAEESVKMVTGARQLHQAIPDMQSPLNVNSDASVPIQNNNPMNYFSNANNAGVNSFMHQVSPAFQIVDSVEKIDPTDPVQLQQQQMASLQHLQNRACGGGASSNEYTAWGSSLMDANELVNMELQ
Kind of assay: protein-binding microarray (RPBM); PBS, 2% BSA, 51.3 ng/ul salmon testes DNA, 50 uM zinc acetate, 200 nM TF, 25 C, 1 h; high values mean tight binding. The settings on record: protein: recombinant; tags: N-terminal polyhistidine and DsRed monomer fusion (pET32a); chain copies: 2; label: CyDye5-dUTP incorporated in the synthesized complementary strand; 3' TTTTT single-stranded linker to array surface; dsDNA, one strand shown. The procedure, abridged: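 Transcription factors, each fused N-terminally to a polyhistidine tag and DsRed, were expressed in E. coli BL21-CodonPlus and purified on Ni–NTA. A custom Agilent array was made double-stranded by primer extension with Cy5-dUTP and blocked with 2% BSA. It was incubated with 200 nM protein in PBS, 2% BSA, salmon testes DNA and 50 µM zinc acetate at 25 °C for 1 h, then washed. The binding signal is per-feature fluorescence intensity (arbitrary units) read on an Axon 4000B scanner.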
In the case of “AATTCCTCTGCGGCCGCCACGTGCACGCGCCGCCGTTGCCCGGAGTCACCTAGTGCAG”, the binding signal was 11100 fluorescence intensity (a.u.).
With “CTGGAGTAGCTCCCTGGGACGTGACGTGGCTTGGGTTGATCGGAGTCACCTAGTGCAG” the figure was 13700 fluorescence intensity (a.u.); with “TCTATATGCAGATCACAAGATTATGACTATGCTAGCACTACGGAGTCACCTAGTGCAG”, 3850 fluorescence intensity (a.u.); with “GGAATGTCCAAAACGTGACTGGCTTCGCTGGAAGATAACCCGGAGTCACCTAGTGCAG”, 3310 fluorescence intensity (a.u.).
On to “TATTGCCATCCGTTTCACCTAGCTGCCTCCCAACCAAATGCGGAGTCACCTAGTGCAG”, for which the binding signal is 3280 fluorescence intensity (a.u.).
The value for “GACGCCGCCATCGCCGCGTCACGCCACGCCACGCCACGCGCGGAGTCACCTAGTGCAG” was 16100 fluorescence intensity (a.u.); that for “GACGATGGACAGCTGGTCAGCTAGCAGCCAAGCATTGGCTCGGAGTCACCTAGTGCAG” was 17300 fluorescence intensity (a.u.); that for “GAGCGGTGGCCTCTCGAAGCCCCTCTTCCCGCTTCTGGGACGGAGTCACCTAGTGCAG” was 16400 fluorescence intensity (a.u.).
With “GAGCAGGAATACAGCCATTTGTCACCCTGACACACTACGACGGAGTCACCTAGTGCAG” the figure was 3190 fluorescence intensity (a.u.); with “TGTGGTGGGAGCTGTCTTGTACTGTCACTCCATTCATTGCCGGAGTCACCTAGTGCAG”, 27300 fluorescence intensity (a.u.).
The value for “GTCTTTGATCCAGGGATCCCTGTCACATCGAATGTTTGGACGGAGTCACCTAGTGCAG” was 3680 fluorescence intensity (a.u.); that for “GGATTCCGCAAATCCACGAAGAAAATCAAACTCCGAACCTCGGAGTCACCTAGTGCAG” was 12500 fluorescence intensity (a.u.); that for “ATGGGAATGGTGGCGATGGAGGTTGGGAACGGCGGTGGCGCGGAGTCACCTAGTGCAG” was 3200 fluorescence intensity (a.u.).
Regarding “CGCGCGAGTGCTAGGAAGCTGAGTCACGCCCGCCCTCCTCCGGAGTCACCTAGTGCAG”, the binding signal was 10700 fluorescence intensity (a.u.).
In the case of “TTACCTTCCAGGCTGACTCAGCTCGGCCTAGTCCGTACATCGGAGTCACCTAGTGCAG”, the binding signal is 11100 fluorescence intensity (a.u.).
With “CAGATCGGCAGACCAGACCACGTGTACACCCAACACGAGGCGGAGTCACCTAGTGCAG” the figure was 8390 fluorescence intensity (a.u.); with “GGCGTGGGCGGCCGTGTGCCCACGTCAAGACGTGCGTGGACGGAGTCACCTAGTGCAG”, 5040 fluorescence intensity (a.u.).
The value for “CTCCGAGGAGCGACAAGGTACGTGGCTCTCCCCTTGCATTCGGAGTCACCTAGTGCAG” was 4380 fluorescence intensity (a.u.); that for “TTTGTTCTCTGAGGCATGGATGTGTGCAGTATTATTCCCACGGAGTCACCTAGTGCAG” was 3310 fluorescence intensity (a.u.).
The value for “TAACGGATGGCATCGTTTGCTTGACGTGCGACCCAGTCCGCGGAGTCACCTAGTGCAG” was 3880 fluorescence intensity (a.u.); that for “ATACTCAAAACAACACGTGTTACAAATACAGTGGAAACCTCGGAGTCACCTAGTGCAG” was 4050 fluorescence intensity (a.u.); that for “TTTGGGCTAGCTCGTTGATTGACACGTCTCCTGAGCATTTCGGAGTCACCTAGTGCAG” was 4670 fluorescence intensity (a.u.).
Take “ATGAGATTGGAATTAAACGTGTGTCCGAGTCAGCAACTCCCGGAGTCACCTAGTGCAG”: the binding signal is 17200 fluorescence intensity (a.u.).
With “TTAATCCAAGCCTTTAATACATAAACCATCCTATGCTCAACGGAGTCACCTAGTGCAG” the figure was 16900 fluorescence intensity (a.u.); with “CCGCCGGCTCTCCTTGCTGCCACCGTAGCCACCGGTGACGCGGAGTCACCTAGTGCAG”, 4390 fluorescence intensity (a.u.).
Regarding “GACTGGTGGCCACGACACGCGAGAAGTCCGACACGGCGTCCGGAGTCACCTAGTGCAG”, the binding signal was 4030 fluorescence intensity (a.u.).
With “TCCATTAAGCCTCCGTTTAGTAAAGATAAAGATTGGTCAACGGAGTCACCTAGTGCAG” the figure was 44200 fluorescence intensity (a.u.); with “AATTCAAGAGCTAGCTTAACACAAGTTCTAAGACAAATACCGGAGTCACCTAGTGCAG”, 20400 fluorescence intensity (a.u.).
In the case of “AATTTGGCATCTGACTGCAGGCACGCACTAGATATTGCTTCGGAGTCACCTAGTGCAG”, the binding signal is 3160 fluorescence intensity (a.u.).
The value for “CTAGCGTGTGATTTTATCCTCCAACGTGGGAGATATTCCTCGGAGTCACCTAGTGCAG” was 4320 fluorescence intensity (a.u.); that for “CCACGCAACGCAAGCCCGCTGTCAGTAGACGTCACCCGGTCGGAGTCACCTAGTGCAG” was 5610 fluorescence intensity (a.u.); that for “CATGCCTATATAAGCCAAGTCACGCATGCTTAAACAACACCGGAGTCACCTAGTGCAG” was 3890 fluorescence intensity (a.u.).
With “ATATGGTTGCCCAGTAGAGGATGTCATCACTGGATTGGCACGGAGTCACCTAGTGCAG” the figure was 4400 fluorescence intensity (a.u.); with “ACATAAACTGATATTTTAGAGTATTATTTTATCGAAGCGCCGGAGTCACCTAGTGCAG”, 3460 fluorescence intensity (a.u.).
With “CGTTGCTCCTCCTCGATCTGAACAGGACGAGCGGTGGCGCCGGAGTCACCTAGTGCAG” the figure was 3550 fluorescence intensity (a.u.); with “CACACACCAACATCCACACATCTTTTCAAACCAATTCATCCGGAGTCACCTAGTGCAG”, 4900 fluorescence intensity (a.u.); with “GAGTCAATAATATATGGGTCCCGCTTGCTGACTCAGCTGGCGGAGTCACCTAGTGCAG”, 38600 fluorescence intensity (a.u.).
Take “GAAAACCGAGTCAAATACAAATGACGCACCAAAATATCGGCGGAGTCACCTAGTGCAG”: the binding signal was 6040 fluorescence intensity (a.u.).
For “CCCGATCCGGGTCAAATCGTCCGACTCATCGGGACAATCTCGGAGTCACCTAGTGCAG”, the binding signal is 3500 fluorescence intensity (a.u.).
On to “CTGGACACCTCACGAAGTCTCAAACTGCTGTTTGTTCTCACGGAGTCACCTAGTGCAG”, for which the binding signal was 4230 fluorescence intensity (a.u.).
The value for “CTGCAACAATTTGTCCTTTTCATTTGTCTTGCAGTTCTTGCGGAGTCACCTAGTGCAG” was 3140 fluorescence intensity (a.u.); that for “AAGGAAAAGGCCCGCGTGGGCTGAGCGTGCGCCGGTTCACCGGAGTCACCTAGTGCAG” was 3600 fluorescence intensity (a.u.).
